# Screening data, single-dose tests

From ChEMBL document CHEMBL3988442, “University of Dundee, Small-Polar-MMV Screening Library” (2021).

A: 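Whole-cell growth test on Mycobacterium tuberculosis, read after 4 days in a medium based on cholesterol and the lipid DPPC; the read-out is not stated. Concentration: 50 µM. Direction is inferred from retests: higher values go with more growth inhibition. Size under these conditions: about 69,000 compounds, about 370 of them at 50% or above in at least one test.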
B: 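Phenotypic screen: M. tuberculosis growth, glucose 7H9 medium, 3 days; the read-out is not stated. Concentration: 50 µM. Direction is inferred from retests: higher values go with more growth inhibition. About 69,000 compounds were tested under these conditions; 1.1% (about 760) showed 50% or more at least once.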

Each number is a percent effect as filed.
The record does not define 0% and 100%; most values in the screen are far below 50% and negative numbers occur (in some assays of this library far below -100).
This is an unselected part of the compounds tested.
Two or more numbers in one place are separate tests of the same structure; such repeats can differ widely.

| SMILES | A | B |
|---|---|---|
| `O=C(O)C(F)(F)F.O=C(c1ccncc1)N1CCOC2(CCCN(c3nncs3)C2)C1` (stereo not drawn) | -13.4% | -40.14% |
| `COc1ccccc1-c1nnc2n1NC(N)=C(C#N)S2` | -21.6% | -27.18% |
| `CCN(C)S(=O)(=O)NCC1CCCN(Cc2ccccc2F)C1` (stereo not drawn) | -18.16% | -2.981% |
| `Cc1nc2c(c(NC3CCN(Cc4ccccc4)CC3)n1)CCNCC2` | -8.871% | 13.92% |
| `CC(=O)NCCNCC1(O)CCCN(CCC2CCCCC2)C1=O` (stereo not drawn) | -9.903% & -20.91% | -21.5% |
| `c1cc(-c2nc(CN3CCc4c(ncn4C4CC4)C3)cs2)cs1` | -8.925% | -2.156% |
| `CC(C)c1nc(CNC(C(=O)N2CCOCC2)C(C)C)no1` (stereo not drawn) | 7.753% | 18.81% |
| `CC1=C(c2ccc(Cl)cc2)S(=O)(=O)N=C1N1CCc2ccccc21` | -6.771% | -1.788% |
| `CCOCCOc1ccccc1C(=O)N1C[C@H](C2CC2)[C@@H](N)C1` | -38.66% | -78.05% & -5.819% |
| `O=C(CCc1nc2cc(Br)cnc2[nH]1)NCCCN1CCOCC1` | -7.746% | 9.841% |
| `Cc1nn(CN(CC(C)C)C2CC2)c(=O)c2noc(C)c12` | -15.77% | -22.17% |
| `Cc1c(CN2CCCCC2)c(O)n(CCO)c(=O)c1C#N` | -16.63% & -7.445% | -21.66% |
| `Cc1ccc(N2CCC(C(O)c3cccs3)CC2)nn1` (stereo not drawn) | 5.661% | -10.29% & 29.58% |
| `COc1cc(N(C)Cc2cccc(-n3cccn3)c2)nc(N)n1` | 10.62% | 5.226% |
| `CCc1ncc(C(=O)N2CCC(O)(CN3CCOCC3)C(C)(C)C2)cn1` (stereo not drawn) | 2.351% | -6.884% |
| `Cc1cccc(CN(Cn2nc(C)c3c(C)onc3c2=O)C2CC2)c1` | -6.97% | 4.916% |
| `COc1ccccc1N1CCN(C(=O)Cn2nc(C)cc2C)CC1(C)C` | 13.27% | 18.6% |
| `Cc1cc(N(C)Cc2ncc[nH]2)nc(-c2ccccc2)n1` | -2.577% | 2.907% |
| `CCC(C(=O)NCc1nc(C)cc(C(F)(F)F)n1)n1cccn1` (stereo not drawn) | 9.216% | 6.28% |
| `CCOc1ccc(S(=O)(=O)Nc2cnc(OC)nc2OC)cc1` | 11.76% | 1.9% |
| `CN1CC(=O)N(c2ccccc2)CC12CCN(C(=O)CC1CC1)C2.O=C(O)C(F)(F)F` (stereo not drawn) | -1.955% | -9.72% |
| `O=C(O)C(F)(F)F.[H][C@@]12CCN(Cc3cccc(F)c3)[C@]1([H])CC[C@@H](C(=O)N1CCCCO1)O2` | -25.91% | -12.69% |
| `CC(C)CN1CC[C@H](c2nnc(COc3ccc(F)cc3)o2)C1` | 14.14% | 14.69% & -1.144% |
| `Cc1cc2n(n1)[C@@H](C(F)(F)F)C[C@@H](C1CCN(C(=O)C3CC3)CC1)N2` | 17.19% | 27.13% |
| `COC(=O)C(C)N(Cc1cc(=O)n(C)c(=O)n1C)C1CC1` (stereo not drawn) | -42.85% | -44.02% |
| `Cc1nc(C)c(C)c(NCCSc2ccccn2)n1` | 11.33% | 36.83% |
| `COc1ccc(Oc2ncccc2F)cc1CN1CCCC1` | -13.26% | -0.3679% & -48.65% |
| `CC(C)CN(C(=O)Nc1cccc(C(=O)N(C)C)c1)C1CC1` | -23.64% | -5.051% & -23.81% |
| `Cc1c(NC(=O)NC(C)CCO)cccc1OC1CCCC1` (stereo not drawn) | 14.49% | -3.593% |
| `CCc1nc(C)c([C@H]2CN(C)C[C@@H]2C(=O)NC(C)(C)c2ccccc2)[nH]1` | -3.13% | 32.36% |
| `O=C(CCCn1cncn1)NC1(c2cccc(Br)c2)CC1` | -3.819% | -19.62% & 7.99% |
| `CSc1cc2c(cc1NC(=O)NCCn1ccnc1)OCCO2` | -5.139% | 0.2347% |
| `Cc1cccc(CN2CCc3nnc(CO)n3CC2)n1.O=C(O)C(F)(F)F` | -10.81% | -18.69% |
| `Cc1ccnn1CCC(=O)N1CCCC2(C1)NC(=O)c1ccccc1O2` (stereo not drawn) | 7.984% & -6.031% | 8.555% |
| `Cc1noc(C)c1CN1C[C@H](C)[C@]2(CCN(Cc3cccnc3)C2=O)C1.O=C(O)C(F)(F)F.O=C(O)C(F)(F)F` | -2.679% & -5.699% | -12.3% |
| `[H][C@]12CC[C@]([H])(CN(Cc3ccccc3)C1)N(Cc1snnc1C)C2` | 43.89% | 74.36% |
| `[H][C@@]12CS(=O)(=O)C[C@]1([H])N(C(=O)CN1CCCC1)CCN2Cc1[nH]cnc1C` | 12.12% | 6.379% |
| `O=C(O)C1CCCN1c1nc(-c2ccc(Cl)c(Cl)c2)cc(C(F)(F)F)n1` (stereo not drawn) | 19.59% | 11.12% |
| `COC(=O)COc1nc(C(C)C)no1` | -18.09% | 10.21% |
| `CCc1nc(CNc2cc(Cl)ccc2OCC2CCCO2)no1` (stereo not drawn) | 32.97% | 28.18% & 23.01% |
| `CCc1nc(CN(C)Cc2nnc(-c3cccs3)o2)cs1` | 41.28% | 53.77% & 37.01% |
| `O=C(O)C(F)(F)F.O=S(=O)(C1CC1)N1CC[C@]2(C[C@@H](Oc3ccccn3)CO2)C1` | 14.18% | 2.042% |
| `COCCCNC(=O)Cc1cc(-c2ccc3c(c2)OCO3)on1` | -35.87% | -42.48% |
| `Cc1cc(CN(C)Cc2ncc(-c3ccccc3)o2)no1` | -6.576% & 5.899% | 14.28% |
| `O=C1CC(c2ccc(O)cc2)c2c(c(C(=O)O)cn2-c2ccccc2)N1` (stereo not drawn) | -7.686% | -5.005% |
| `CCC1CN(CCNC(C)=O)CCN1CCOC` (stereo not drawn) | -30.59% | -15.17% |
| `CC(C)NC(=O)c1nnc2ccc(N3CCOCC3)cc2n1` | 3.211% | -23.38% |
| `Cc1cc2nc(-c3cn(C4CCNCC4)nn3)[nH]c2cc1C` | -13.73% | 17.59% |
| `CNC(=O)[C@@H](C1CC1)N1CCC[C@H]1C(=O)NCC(C)C.Cl` | -13.85% | -38.67% & -0.3277% |
| `O=C(O)C(F)(F)F.O=C(O)C(F)(F)F.[H][C@@]12OCCN(C(=O)c3cncc(C)c3)[C@@]1([H])CC[C@H]2Oc1ccccn1` | 9.419% & -9.121% | -26.79% |
| `COc1ccc2[nH]nc(CN3CCC(C(C)N(C)C)CC3)c2c1` (stereo not drawn) | -0.763% | 8.024% |
| `O=C(c1ccc(O)nc1)N1CCN(C(=O)c2ccc(F)c(F)c2)CC1` | 3.372% | -6.919% & -6.801% |
| `Nc1ncc(-c2cccc(NC(=O)[C@@H]3CCCCN3)c2)cn1` | -4.432% | 12.14% |
| `Cc1nc(C)n(C2CCCN(C(=O)c3csc(CC(C)C)n3)C2)n1` (stereo not drawn) | -25.56% | -4.885% |
| `O=C(O)C(F)(F)F.O=C(O)C(F)(F)F.c1cnc(N2CC3(CCN(Cc4cccnc4)C3)C2)nc1` | 19.79% | -34.79% |
| `CCCNc1cc(C(=O)N2CCOCC2)nc(C)n1` | -10.57% | 2.386% |
| `CC(NC(N)=O)C(=O)NCc1cc(Br)ccc1F` (stereo not drawn) | -11.23% | -13.38% & 4.826% |
| `O=C(CC1CC1)NCc1cn2c(n1)CN(Cc1nccs1)CC2.O=C(O)C(F)(F)F` | -32.51% | -25.13% |
| `N#Cc1ccc(OCCN2CCc3cncnc3C2)cc1` | -9.289% | -19.61% |
| `CN1Cc2cc(F)ccc2N(CC(C)(C)O)CCC1=O` | -12.41% | -25.21% |
| `CC(=O)OC1CN(c2nc3c(C)cccc3s2)C1` | 15.51% | -34.14% |
| `CC(Cn1cncn1)NC(=O)N1CC2(CCCC2)c2ccccc21` (stereo not drawn) | 2.639% | 5.412% |
| `CC(C)NC(=O)C1CN(C(=O)NCc2ccccc2)CC12CCOCC2` (stereo not drawn) | -26.62% | -16.89% |
| `O=C(O)C(F)(F)F.O=C(O)C(F)(F)F.[H][C@@]12CN(Cc3ccc(F)cc3)C[C@]1([H])C(=O)N(CCN1CCCC1)C2` | -3.854% | -13.06% |
| `COc1ccc(OCCCNC(=O)NCc2csc(C)n2)cc1` | -2.42% | 0.7177% |

For reference, 8 entries once more:

{"smiles": "Cc1cccc(CN2CCc3nnc(CO)n3CC2)n1.O=C(O)C(F)(F)F", "A": -10.81, "B": -18.69}
{"smiles": "COc1ccccc1-c1nnc2n1NC(N)=C(C#N)S2", "A": -21.6, "B": -27.18}
{"smiles": "CC(C)CN(C(=O)Nc1cccc(C(=O)N(C)C)c1)C1CC1", "A": -23.64, "B": "-5.051 & -23.81"}
{"smiles": "COc1ccc(Oc2ncccc2F)cc1CN1CCCC1", "A": -13.26, "B": "-0.3679 & -48.65"}
{"smiles": "COc1ccccc1N1CCN(C(=O)Cn2nc(C)cc2C)CC1(C)C", "A": 13.27, "B": 18.6}
{"smiles": "COc1ccc2[nH]nc(CN3CCC(C(C)N(C)C)CC3)c2c1", "stereo": "stereo not drawn", "A": -0.763, "B": 8.024}
{"smiles": "Cc1nc(C)n(C2CCCN(C(=O)c3csc(CC(C)C)n3)C2)n1", "stereo": "stereo not drawn", "A": -25.56, "B": -4.885}
{"smiles": "O=C(c1ccc(O)nc1)N1CCN(C(=O)c2ccc(F)c(F)c2)CC1", "A": 3.372, "B": "-6.919 & -6.801"}